Reference: publication PMC5966357
No constants are given. Whether binding was seen depends on the method and setting. Binding seen in cells or lysates may run through a third protein. Some entries that bind do so weakly or less than the wild type.

Protein sequences, listed by entry. Tags and fused reporters are not part of them. Lines headed by an entry give the natural chain unless they say otherwise; changes in a name come on top. Residues count along the entry.
UniProt P07355: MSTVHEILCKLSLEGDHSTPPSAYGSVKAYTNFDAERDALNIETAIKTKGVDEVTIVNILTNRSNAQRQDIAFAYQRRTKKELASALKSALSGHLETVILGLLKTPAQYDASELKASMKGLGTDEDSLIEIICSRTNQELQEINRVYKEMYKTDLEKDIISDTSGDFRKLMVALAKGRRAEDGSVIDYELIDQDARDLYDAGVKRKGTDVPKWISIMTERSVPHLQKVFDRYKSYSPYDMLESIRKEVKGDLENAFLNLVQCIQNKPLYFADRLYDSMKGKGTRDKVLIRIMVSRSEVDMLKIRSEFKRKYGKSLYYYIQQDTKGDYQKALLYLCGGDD
UniProt P19838, residues 1-433: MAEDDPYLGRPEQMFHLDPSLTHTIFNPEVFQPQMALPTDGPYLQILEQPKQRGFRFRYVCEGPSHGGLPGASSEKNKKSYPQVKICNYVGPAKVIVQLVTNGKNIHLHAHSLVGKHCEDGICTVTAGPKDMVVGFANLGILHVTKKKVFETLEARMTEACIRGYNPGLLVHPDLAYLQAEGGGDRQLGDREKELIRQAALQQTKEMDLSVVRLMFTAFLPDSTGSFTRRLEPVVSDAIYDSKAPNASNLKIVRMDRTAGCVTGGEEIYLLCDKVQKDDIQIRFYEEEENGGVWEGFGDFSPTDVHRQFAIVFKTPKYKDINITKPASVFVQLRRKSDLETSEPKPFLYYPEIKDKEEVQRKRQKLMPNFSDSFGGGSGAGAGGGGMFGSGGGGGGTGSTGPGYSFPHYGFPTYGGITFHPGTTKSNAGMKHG

How the values were obtained:
[1] = target: Annexin A2-WT-myc (human) (UniProt P07355); assay: co-IP; HepG2 whole-cell lysate (untransfected, or transfected with Annexin A2-WT-myc or Annexin A2-K302A-myc); 2 mg lysate with anti-Annexin A2, anti-p50 or anti-C-myc, protein A/G beads, 4°C, immunoblot; cells treated for 12 h with G-Rg5 (6 μmol/L), G-Rk1 (6 μmol/L), PMA (100 ng/mL) or etoposide (25 μg/mL)
[2] = target: Annexin A2 (endogenous, HepG2) (human (endogenous in HepG2)) (UniProt P07355); assay: as above
[3] = target: Annexin A2-K302A-myc (human) (UniProt P07355); assay: as above
[4] = target: non-tagged Annexin A2 (pEXS-Annexin A2-WT), prokaryotic cell-expressed (human) (UniProt P07355); assay: co-IP; in vitro: 1 mg E. coli BL21 (DE3) lysate containing Annexin A2 mixed with 1 mg lysate containing p50, 4°C overnight, with or without G-Rg5 or G-Rk1; immunoprecipitation and immunoblot as for the in vivo assay
[5] = target: non-tagged Annexin A2-K302A (pEXS-Annexin A2-K302A), prokaryotic cell-expressed (human) (UniProt P07355); assay: as above

binding [1] | binding [2] | binding [3] | binding [4] | binding [5] | Substance
binds | binds | binds | – | – | NF-κB p50 subunit (endogenous, HepG2) (from UniProt P19838 1-433)
– | – | – | binds | binds | non-tagged NF-κB p50 subunit (pEXS-p50), prokaryotic cell-expressed (from UniProt P19838 1-433)
